Experimental data from patent publication US20240108723A1.
No constants are given. Whether binding was seen depends on the method and setting. Some results given as binding are weak or reduced against the parent protein; the word gives no strength.

By UniProt entry, the sequences of proteins in these tests, tags left out. Residues count along the entry.
UniProt P15328, residues 25-233: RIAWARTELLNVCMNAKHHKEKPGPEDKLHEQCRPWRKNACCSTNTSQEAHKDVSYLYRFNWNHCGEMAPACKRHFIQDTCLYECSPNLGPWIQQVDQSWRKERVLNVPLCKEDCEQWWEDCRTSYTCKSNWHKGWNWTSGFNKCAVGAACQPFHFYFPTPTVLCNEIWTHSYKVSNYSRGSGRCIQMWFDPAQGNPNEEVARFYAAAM

B1: MB-CART FOLR1 G (protein)
chain: MQVQLVQSGAEVVKPGASVKISCKASGYTFTGYFMNWVKQSPGQSLEWIGRIHPYDGDTFYNQKFQGKATLTVDKSSNTAHMELLSLTSEDFAVYYCTRYDGSRAMDYWGQGTTVTVSSASTKGGGGGSGGGGSGGGGSDIVLTQSPLSLAVSLGQPAIISCKASQSVSFAGTSLMHWYHQKPGQQPRLLIYRASNLEAGVPDRFSGSGSKTDFTLTISPVEAEDAATYYCQQSREYPYTFGGGTKLEIKRTAAAESKYGPPCPPCPIYIWAPLAGTCGVLLLSLVITLYCKRGRKKLLYIFKQPFMRPVQTTQEEDGCSCRFPEEEEGGCELRVKFSRSADAPAYQQGQNQLYNELNLGRREEYDVLDKRRGRDPEMGGKPRRKNPQEGLYNELQKDKMAEAYSEIGMKGERRRGKGHDGLYQGLSTATKDTYDALHMQALPPR
B2: MB-CART FOLR1 H (protein)
chain: DIVLTQSPLSLAVSLGQPAIISCKASQSVSFAGTSLMHWYHQKPGQQPRLLIYRASNLEAGVPDRFSGSGSKTDFTLTISPVEAEDAATYYCQQSREYPYTFGGGTKLEIKRTGGGGSGGGGSGGGGSMQVQLVQSGAEVVKPGASVKISCKASGYTFTGYFMNWVKQSPGQSLEWIGRIHPYDGDTFYNQKFQGKATLTVDKSSNTAHMELLSLTSEDFAVYYCTRYDGSRAMDYWGQGTTVTVSSASTKGAAAESKYGPPCPPCPIYIWAPLAGTCGVLLLSLVITLYCKRGRKKLLYIFKQPFMRPVQTTQEEDGCSCRFPEEEEGGCELRVKFSRSADAPAYQQGQNQLYNELNLGRREEYDVLDKRRGRDPEMGGKPRRKNPQEGLYNELQKDKMAEAYSEIGMKGERRRGKGHDGLYQGLSTATKDTYDALHMQALPPR
B3: MB-CART FOLR1 C (protein)
chain: MEVQLVESGGGVVQPGRSLRLSCSASGFTFSGYGLSWVRQAPGKGLEWVAMISSGGSYTYYADSVKGRFAISRDNAKNTLFLQMDSLRPEDTGVYFCARHGDDPAWFAYWGQGTPVTVSSASTKGGGGGSGGGGSGGGGSDIQLTQSPSSLSASVGDRVTITCSVSSSISSNNLHWYQQKPGKAPKPWIYGTSNLASGVPSRFSGSGSGTDYTFTISSLQPEDIATYYCQQWSSYPYMYTFGQGTKVEIKRTAAAESKYGPPCPPCPIYIWAPLAGTCGVLLLSLVITLYCKRGRKKLLYIFKQPFMRPVQTTQEEDGCSCRFPEEEEGGCELRVKFSRSADAPAYQQGQNQLYNELNLGRREEYDVLDKRRGRDPEMGGKPRRKNPQEGLYNELQKDKMAEAYSEIGMKGERRRGKGHDGLYQGLSTATKDTYDALHMQALPPR
B4: MB-CART FOLR1 D (protein)
chain: DIQLTQSPSSLSASVGDRVTITCSVSSSISSNNLHWYQQKPGKAPKPWIYGTSNLASGVPSRFSGSGSGTDYTFTISSLQPEDIATYYCQQWSSYPYMYTFGQGTKVEIKRTGGGGSGGGGSGGGGSMEVQLVESGGGVVQPGRSLRLSCSASGFTFSGYGLSWVRQAPGKGLEWVAMISSGGSYTYYADSVKGRFAISRDNAKNTLFLQMDSLRPEDTGVYFCARHGDDPAWFAYWGQGTPVTVSSASTKGAAAESKYGPPCPPCPIYIWAPLAGTCGVLLLSLVITLYCKRGRKKLLYIFKQPFMRPVQTTQEEDGCSCRFPEEEEGGCELRVKFSRSADAPAYQQGQNQLYNELNLGRREEYDVLDKRRGRDPEMGGKPRRKNPQEGLYNELQKDKMAEAYSEIGMKGERRRGKGHDGLYQGLSTATKDTYDALHMQALPPR

Columns and labels:
[1] = target: biotinylated FOLR1-Fc fusion protein (UniProt P15328); test: flow cytometry; direct CAR labelling with biotinylated FOLR1-Fc on transduced cells
[2] = target: biotinylated FOLR1-Fc fusion protein (UniProt P15328); test: flow cytometry; titration of biotinylated FOLR1-Fc on CAR T cells, anti-biotin-PE secondary staining

Row | Binder | binding [1] | binding [2]
1 | B1 | binds | binds
2 | B2 | binds | 
3 | B3 | binds | binds
4 | B4 | binds | 
